# Some of these results come from one statement about several compounds together.
# Experiments:
# E. coli = test: Time kill kinetics; assay type: cell-based, Escherichia coli; settings: E. coli (3×10^8 cells mL^−1), 32 ppm concentration of oligomer compounds
# Protocol: Time kill studies of the soligome compounds against E. coli were also studied. The experimental setup for time kill kinetics was similar to the set up for MBC determination. The microbes were treated with oligomer compounds at 4MIC concentration, and samples were taken out of each well at 2 minutes. 500 μl of cell suspension was removed, rescued by a series of 10-fold dilutions with growth medium, and kept on ice until plating. For plating, 50 μl to 200 μl of the diluted samples was spread on growth medium agar plates and colonies were counted after overnight incubation at 37° C.
# microbes = test: MBC test, killing of microbes; assay type: cell-based; settings: respective MIC concentrations, 24 hours
SMILES,killing within two minutes (E. coli),killing of microbes (microbes)
CCCCCC[n+]1ccn(Cc2ccc(C[n+]3ccn(Cc4ccc(C[n+]5ccn(Cc6ccccc6Cn6cc[n+](Cc7ccc(Cn8cc[n+](Cc9ccc(Cn%10cc[n+](CCCCCC)c%10)cc9)c8)cc7)c6)c5)cc4)c3)cc2)c1.[Br-].[Br-].[Cl-].[Cl-].[Cl-].[Cl-] [Compound 1],More than 99.9%,more than 99.999%
CCCCCCCC[n+]1ccn(Cc2ccc(C[n+]3ccn(Cc4ccc(C[n+]5ccn(Cc6ccccc6Cn6cc[n+](Cc7ccc(Cn8cc[n+](Cc9ccc(Cn%10cc[n+](CCCCCCCC)c%10)cc9)c8)cc7)c6)c5)cc4)c3)cc2)c1.[Br-].[Br-].[Cl-].[Cl-].[Cl-].[Cl-] [Compound 2],More than 99.9%,more than 99.999%
